{"source": "patent US6420518", "key": {"IGFBP-1 [1]": {"biological_target": "T1, IGFBP-1 (UniProt P08833 26-259)", "T1 construct": "in kinetics immobilised on a CM chip by EDC/NHS; biotinylated in the phage selection", "T1 sequence (looked up)": "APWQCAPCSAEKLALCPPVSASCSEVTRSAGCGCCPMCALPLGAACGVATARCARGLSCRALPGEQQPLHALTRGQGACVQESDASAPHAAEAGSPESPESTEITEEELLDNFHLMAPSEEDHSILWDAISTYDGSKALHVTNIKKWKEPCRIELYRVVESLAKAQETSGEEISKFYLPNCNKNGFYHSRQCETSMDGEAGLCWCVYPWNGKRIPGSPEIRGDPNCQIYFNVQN", "assay": "inhibition of IGFBP-1 binding to IGF-I"}, "IGFBP-1 [2]": {"biological_target": "T2, IGFBP-1 (UniProt P08833)", "T2 sequence (looked up)": "T1 sequence (looked up)", "assay": "inhibition assays of IGFBP-1 binding to IGF-I"}, "IGFBP-1 [3]": {"biological_target": "T2, IGFBP-1", "assay": "monovalent phage display, 5 rounds of selection on biotinylated IGFBP-1 with off-rate selection by IGF"}, "IGFBP-1 [4]": {"biological_target": "T1, IGFBP-1", "assay": "monovalent phage display, 5 rounds of selection on biotinylated IGFBP-1 with off-rate selection by IGF"}, "IGFBP-1 [5]": {"biological_target": "T2, IGFBP-1", "assay": "BIAcore inhibition assay, 9-10 nM IGFBP-1, immobilized IGF-1"}}, "note": "No constants are given. Whether binding was seen depends on the method and setting. Some binding calls cover weakened binding; strength is not graded here."}
{"binder": "CRAGALQWLCEKYF (cyclic: disulfide between Cys-1 and Cys-10)", "note": "[bp1-30]", "values": [{"measurement": "binding", "setting": "IGFBP-1 [1]", "value": "binds"}]}
{"binder": "CRAGNLQWLCEKYF (cyclic: disulfide between Cys-1 and Cys-10)", "note": "[bp1-34]", "values": [{"measurement": "binding", "setting": "IGFBP-1 [1]", "value": "binds"}]}
{"binder": "CRAGRLQWLCEKYF (cyclic: disulfide between Cys-1 and Cys-10)", "note": "[bp1-31]", "values": [{"measurement": "binding", "setting": "IGFBP-1 [1]", "value": "binds"}]}
{"binder": "CRAGPLQRLCEKYF (cyclic: disulfide between Cys-1 and Cys-10)", "note": "[bp1-22]", "values": [{"measurement": "binding", "setting": "IGFBP-1 [1]", "value": "binds"}]}
{"binder": "CRAGPLQHLCEKYF (cyclic: disulfide between Cys-1 and Cys-10)", "note": "[bp1-24]", "values": [{"measurement": "binding", "setting": "IGFBP-1 [1]", "value": "binds"}]}
{"binder": "SEVGCRAGPLQWLCEKYFSTY (cyclic: disulfide between the two Cys (bp1-01 residues Cys-1 and Cys-10))", "note": "[bp1-21A]", "values": [{"measurement": "binding", "setting": "IGFBP-1 [2]", "value": "binds"}]}
{"binder": "GQQSCRAGPLQWLCEKYFSTY (peptide, not shown: large carriers)", "note": "[Y0791A (peptide-phage clone)]", "values": [{"measurement": "binding", "setting": "IGFBP-1 [3]", "value": "binds"}]}
{"binder": "ASSMCRAGPLQWLCEKYFSTY (peptide, not shown: large carriers)", "note": "[Y0791D (peptide-phage clone)]", "values": [{"measurement": "binding", "setting": "IGFBP-1 [4]", "value": "binds"}]}
{"binder": "QGPDCRAGPLQWLCEKYFSTY (peptide, not shown: large carriers)", "note": "[Y0791H (peptide-phage clone)]", "values": [{"measurement": "binding", "setting": "IGFBP-1 [4]", "value": "binds"}]}
{"binder": "QASECRAGPLQWLCEKYFSTY (peptide, not shown: large carriers)", "note": "[Y0791K (peptide-phage clone)]", "values": [{"measurement": "binding", "setting": "IGFBP-1 [4]", "value": "binds"}]}
{"binder": "AETLCRAGPLQWLCEKYFSTY (peptide, not shown: large carriers)", "note": "[Y0791L (peptide-phage clone)]", "values": [{"measurement": "binding", "setting": "IGFBP-1 [4]", "value": "binds"}]}
{"binder": "NSLLCRAGPLQWLCEKYFSTY (peptide, not shown: large carriers)", "note": "[Y0791S (peptide-phage clone)]", "values": [{"measurement": "binding", "setting": "IGFBP-1 [4]", "value": "binds"}]}
{"binder": "AQWVCRAGPLQWLCEKYFSTY (peptide, not shown: large carriers)", "note": "[Y0791T (peptide-phage clone)]", "values": [{"measurement": "binding", "setting": "IGFBP-1 [4]", "value": "binds"}]}
{"binder": "EARVCRAGPLQWLCEKYFSTY (cyclic: disulfide between the two Cys (bp1-01 residues Cys-1 and Cys-10))", "note": "[bp1-25]", "values": [{"measurement": "binding", "setting": "IGFBP-1 [5]", "value": "binds"}]}
